Measurements as given in the supplement of paper PMC10849652.
This is one part of the list.

The chains behind the UniProt entries cited, without tags or fusion partners. Where a name states a change or a piece, a line headed by the entry shows the natural chain unless it says otherwise.
UniProt P53597: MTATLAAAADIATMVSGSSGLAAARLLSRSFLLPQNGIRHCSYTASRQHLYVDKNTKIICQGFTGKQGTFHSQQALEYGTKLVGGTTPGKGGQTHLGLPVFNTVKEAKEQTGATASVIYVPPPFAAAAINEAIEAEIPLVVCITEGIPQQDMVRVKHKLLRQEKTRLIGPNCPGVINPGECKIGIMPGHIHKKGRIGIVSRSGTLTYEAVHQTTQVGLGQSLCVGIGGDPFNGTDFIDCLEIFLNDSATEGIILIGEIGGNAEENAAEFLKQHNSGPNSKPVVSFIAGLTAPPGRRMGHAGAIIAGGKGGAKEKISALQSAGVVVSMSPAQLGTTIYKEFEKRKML
UniProt O75410: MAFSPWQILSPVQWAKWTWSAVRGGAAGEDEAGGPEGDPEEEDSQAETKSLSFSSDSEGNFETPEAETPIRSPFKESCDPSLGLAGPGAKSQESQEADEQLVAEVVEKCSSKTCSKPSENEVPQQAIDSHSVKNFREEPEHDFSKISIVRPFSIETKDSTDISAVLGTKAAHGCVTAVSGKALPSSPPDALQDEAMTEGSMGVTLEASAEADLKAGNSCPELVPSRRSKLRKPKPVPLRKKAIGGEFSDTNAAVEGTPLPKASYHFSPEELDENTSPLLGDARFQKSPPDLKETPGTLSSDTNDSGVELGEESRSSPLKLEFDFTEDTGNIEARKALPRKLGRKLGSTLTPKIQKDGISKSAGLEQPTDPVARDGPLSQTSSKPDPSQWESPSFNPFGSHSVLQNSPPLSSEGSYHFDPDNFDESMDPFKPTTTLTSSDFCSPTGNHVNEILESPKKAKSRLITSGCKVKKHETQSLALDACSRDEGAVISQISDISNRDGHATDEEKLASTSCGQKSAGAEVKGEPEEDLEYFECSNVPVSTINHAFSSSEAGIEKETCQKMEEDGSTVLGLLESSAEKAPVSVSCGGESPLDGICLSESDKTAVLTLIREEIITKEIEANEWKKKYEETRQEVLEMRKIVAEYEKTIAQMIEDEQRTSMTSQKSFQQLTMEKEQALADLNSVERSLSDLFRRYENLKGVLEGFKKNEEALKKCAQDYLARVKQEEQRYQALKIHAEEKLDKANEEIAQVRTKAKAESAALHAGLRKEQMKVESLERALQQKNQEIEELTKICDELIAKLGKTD
UniProt Q9Y3F4: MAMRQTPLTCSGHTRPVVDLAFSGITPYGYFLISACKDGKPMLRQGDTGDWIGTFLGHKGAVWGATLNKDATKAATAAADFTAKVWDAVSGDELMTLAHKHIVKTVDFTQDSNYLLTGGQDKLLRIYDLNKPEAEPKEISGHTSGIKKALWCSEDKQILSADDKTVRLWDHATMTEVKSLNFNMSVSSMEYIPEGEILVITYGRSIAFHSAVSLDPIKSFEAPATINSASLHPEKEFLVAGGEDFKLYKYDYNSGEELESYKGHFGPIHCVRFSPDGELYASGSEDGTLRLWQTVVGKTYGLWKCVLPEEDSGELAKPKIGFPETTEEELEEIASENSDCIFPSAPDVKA
UniProt O00186: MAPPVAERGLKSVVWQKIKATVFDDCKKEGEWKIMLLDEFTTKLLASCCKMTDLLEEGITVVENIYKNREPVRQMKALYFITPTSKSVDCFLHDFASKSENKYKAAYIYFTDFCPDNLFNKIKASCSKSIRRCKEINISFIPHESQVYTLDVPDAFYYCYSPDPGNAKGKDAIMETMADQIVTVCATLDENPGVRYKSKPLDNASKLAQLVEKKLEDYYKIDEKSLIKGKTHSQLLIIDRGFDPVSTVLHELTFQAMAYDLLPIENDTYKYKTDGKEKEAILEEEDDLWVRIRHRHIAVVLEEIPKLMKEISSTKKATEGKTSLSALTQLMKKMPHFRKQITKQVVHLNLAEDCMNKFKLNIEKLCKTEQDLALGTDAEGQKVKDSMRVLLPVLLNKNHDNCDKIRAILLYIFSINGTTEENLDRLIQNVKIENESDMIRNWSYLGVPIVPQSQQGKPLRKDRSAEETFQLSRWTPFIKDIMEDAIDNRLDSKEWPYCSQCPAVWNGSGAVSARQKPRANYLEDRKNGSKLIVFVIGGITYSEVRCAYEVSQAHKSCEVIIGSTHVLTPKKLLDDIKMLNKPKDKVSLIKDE
UniProt Q96SI9: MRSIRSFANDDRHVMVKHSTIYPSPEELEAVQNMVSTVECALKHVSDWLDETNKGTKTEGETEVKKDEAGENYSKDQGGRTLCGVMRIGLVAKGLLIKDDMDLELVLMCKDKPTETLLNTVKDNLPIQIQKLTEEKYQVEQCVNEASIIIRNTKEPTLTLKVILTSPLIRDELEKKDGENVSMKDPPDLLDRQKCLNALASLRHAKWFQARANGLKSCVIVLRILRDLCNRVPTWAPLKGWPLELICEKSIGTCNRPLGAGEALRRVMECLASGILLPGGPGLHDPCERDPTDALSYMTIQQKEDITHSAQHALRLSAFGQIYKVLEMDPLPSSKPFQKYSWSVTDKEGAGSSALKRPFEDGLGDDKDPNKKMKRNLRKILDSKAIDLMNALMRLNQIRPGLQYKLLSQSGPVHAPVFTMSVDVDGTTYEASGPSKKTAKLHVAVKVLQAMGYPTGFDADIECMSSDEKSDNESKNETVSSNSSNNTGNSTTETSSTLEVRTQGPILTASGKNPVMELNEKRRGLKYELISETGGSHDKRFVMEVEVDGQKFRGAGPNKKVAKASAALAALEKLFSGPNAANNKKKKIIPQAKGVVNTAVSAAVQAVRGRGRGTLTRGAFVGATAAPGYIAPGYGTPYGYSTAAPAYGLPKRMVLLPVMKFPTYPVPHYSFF
UniProt Q9UMZ2: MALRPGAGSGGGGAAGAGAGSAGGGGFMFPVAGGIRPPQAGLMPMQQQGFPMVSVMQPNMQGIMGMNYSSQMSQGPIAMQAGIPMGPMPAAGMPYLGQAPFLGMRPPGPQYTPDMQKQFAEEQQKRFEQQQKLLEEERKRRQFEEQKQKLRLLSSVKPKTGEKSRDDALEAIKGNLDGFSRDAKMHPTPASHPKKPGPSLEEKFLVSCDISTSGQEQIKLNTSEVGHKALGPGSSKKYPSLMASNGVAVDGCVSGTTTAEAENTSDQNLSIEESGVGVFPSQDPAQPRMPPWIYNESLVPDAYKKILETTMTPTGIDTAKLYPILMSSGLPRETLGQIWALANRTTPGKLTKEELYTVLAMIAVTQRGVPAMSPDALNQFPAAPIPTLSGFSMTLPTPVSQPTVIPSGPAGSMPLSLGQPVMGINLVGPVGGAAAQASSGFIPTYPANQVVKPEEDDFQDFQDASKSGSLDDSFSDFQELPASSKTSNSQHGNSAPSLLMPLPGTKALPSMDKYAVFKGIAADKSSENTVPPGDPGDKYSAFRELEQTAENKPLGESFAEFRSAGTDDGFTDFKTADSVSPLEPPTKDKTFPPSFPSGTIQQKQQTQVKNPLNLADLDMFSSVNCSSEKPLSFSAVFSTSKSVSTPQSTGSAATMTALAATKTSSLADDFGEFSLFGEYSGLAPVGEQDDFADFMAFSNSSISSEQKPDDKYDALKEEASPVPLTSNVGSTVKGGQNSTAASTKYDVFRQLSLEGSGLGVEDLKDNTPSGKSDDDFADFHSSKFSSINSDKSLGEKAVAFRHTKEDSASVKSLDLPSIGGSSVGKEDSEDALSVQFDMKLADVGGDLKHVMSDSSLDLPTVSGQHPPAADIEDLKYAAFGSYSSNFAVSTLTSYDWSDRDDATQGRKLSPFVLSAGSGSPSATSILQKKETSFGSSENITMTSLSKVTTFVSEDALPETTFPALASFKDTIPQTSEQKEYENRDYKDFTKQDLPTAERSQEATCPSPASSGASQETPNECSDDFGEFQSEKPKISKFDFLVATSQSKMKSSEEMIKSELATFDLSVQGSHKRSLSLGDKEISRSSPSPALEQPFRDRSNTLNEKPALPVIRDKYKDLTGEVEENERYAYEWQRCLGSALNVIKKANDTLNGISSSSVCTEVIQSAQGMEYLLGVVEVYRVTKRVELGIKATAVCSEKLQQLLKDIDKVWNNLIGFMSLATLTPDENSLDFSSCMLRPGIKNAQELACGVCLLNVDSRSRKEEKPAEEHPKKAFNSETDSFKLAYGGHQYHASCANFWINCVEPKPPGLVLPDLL
UniProt O15400: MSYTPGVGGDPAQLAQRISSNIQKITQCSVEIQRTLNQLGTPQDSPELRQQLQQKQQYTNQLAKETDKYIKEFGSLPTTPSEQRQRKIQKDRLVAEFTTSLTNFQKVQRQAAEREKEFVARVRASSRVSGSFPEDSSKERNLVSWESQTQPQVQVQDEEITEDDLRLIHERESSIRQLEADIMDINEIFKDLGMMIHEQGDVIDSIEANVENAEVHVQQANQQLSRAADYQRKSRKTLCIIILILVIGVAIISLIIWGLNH
UniProt Q15208: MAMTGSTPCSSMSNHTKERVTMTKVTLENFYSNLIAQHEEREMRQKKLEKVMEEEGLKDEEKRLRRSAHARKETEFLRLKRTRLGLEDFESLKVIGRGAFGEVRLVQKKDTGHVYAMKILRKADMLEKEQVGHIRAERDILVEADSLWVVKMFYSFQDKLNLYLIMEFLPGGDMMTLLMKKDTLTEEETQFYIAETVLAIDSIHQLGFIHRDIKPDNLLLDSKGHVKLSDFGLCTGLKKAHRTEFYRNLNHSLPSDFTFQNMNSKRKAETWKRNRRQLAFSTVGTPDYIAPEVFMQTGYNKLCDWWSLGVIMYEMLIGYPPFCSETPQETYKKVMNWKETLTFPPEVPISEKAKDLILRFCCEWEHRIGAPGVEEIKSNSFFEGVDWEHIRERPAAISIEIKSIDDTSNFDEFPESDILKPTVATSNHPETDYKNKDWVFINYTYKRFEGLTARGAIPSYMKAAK
UniProt Q86Y82: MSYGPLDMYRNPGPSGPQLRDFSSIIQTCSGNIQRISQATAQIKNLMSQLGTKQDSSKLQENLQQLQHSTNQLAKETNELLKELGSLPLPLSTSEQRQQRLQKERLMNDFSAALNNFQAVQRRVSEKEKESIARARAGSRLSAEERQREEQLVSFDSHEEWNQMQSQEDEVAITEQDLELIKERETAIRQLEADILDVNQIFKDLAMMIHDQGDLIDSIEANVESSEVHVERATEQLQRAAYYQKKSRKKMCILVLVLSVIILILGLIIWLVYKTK
UniProt P50225: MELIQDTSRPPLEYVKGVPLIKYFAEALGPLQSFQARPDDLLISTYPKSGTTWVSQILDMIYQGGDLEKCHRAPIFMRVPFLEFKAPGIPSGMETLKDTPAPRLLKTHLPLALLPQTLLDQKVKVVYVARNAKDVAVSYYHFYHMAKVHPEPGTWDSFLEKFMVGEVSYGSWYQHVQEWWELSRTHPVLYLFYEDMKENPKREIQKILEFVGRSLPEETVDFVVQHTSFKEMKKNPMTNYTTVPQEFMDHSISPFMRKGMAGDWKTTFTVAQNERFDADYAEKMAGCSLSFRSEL
UniProt O60499: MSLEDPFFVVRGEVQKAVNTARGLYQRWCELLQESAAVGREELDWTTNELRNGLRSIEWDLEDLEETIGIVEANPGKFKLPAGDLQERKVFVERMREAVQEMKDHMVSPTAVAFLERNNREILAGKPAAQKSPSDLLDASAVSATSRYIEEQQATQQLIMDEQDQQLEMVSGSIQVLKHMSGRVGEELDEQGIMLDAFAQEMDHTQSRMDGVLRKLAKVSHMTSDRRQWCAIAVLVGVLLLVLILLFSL
UniProt Q15833: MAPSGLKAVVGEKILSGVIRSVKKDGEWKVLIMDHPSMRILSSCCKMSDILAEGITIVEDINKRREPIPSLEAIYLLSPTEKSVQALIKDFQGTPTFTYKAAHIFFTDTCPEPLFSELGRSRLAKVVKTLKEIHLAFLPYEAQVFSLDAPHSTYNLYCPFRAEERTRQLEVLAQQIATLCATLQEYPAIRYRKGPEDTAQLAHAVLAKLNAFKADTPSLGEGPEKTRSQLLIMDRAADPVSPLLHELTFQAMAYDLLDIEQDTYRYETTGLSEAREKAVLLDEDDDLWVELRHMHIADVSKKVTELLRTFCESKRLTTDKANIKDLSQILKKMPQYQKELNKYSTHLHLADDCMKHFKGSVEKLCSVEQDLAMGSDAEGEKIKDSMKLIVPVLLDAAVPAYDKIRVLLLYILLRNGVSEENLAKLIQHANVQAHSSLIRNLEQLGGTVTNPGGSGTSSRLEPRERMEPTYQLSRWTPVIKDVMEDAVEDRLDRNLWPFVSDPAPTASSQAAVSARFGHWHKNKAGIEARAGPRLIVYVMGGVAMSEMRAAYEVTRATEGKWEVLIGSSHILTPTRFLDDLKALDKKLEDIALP
UniProt P61956, whole entry, looked up: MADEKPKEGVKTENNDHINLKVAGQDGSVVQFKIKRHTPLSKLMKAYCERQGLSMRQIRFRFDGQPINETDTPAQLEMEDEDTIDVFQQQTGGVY
UniProt Q9UNK0: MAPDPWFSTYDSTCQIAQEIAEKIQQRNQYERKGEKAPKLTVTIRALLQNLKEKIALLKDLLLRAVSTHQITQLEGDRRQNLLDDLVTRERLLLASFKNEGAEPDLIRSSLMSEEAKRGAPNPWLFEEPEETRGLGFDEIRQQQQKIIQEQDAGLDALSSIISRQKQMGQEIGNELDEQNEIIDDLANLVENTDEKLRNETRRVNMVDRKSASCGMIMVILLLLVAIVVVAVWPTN

Legend:
Test in all cases: log2 fold change, soluble protein after heating vs DMSO (PISA); higher = thermal stabilisation; K562 lysate, 10 uM; active = over 0.2 and 3.5 SD of the protein, either way, in both replicates (recomputed)
nilotinib = compound: Cc1cn(-c2cc(NC(=O)c3ccc(C)c(Nc4nccc(-c5cccnc5)n4)c3)cc(C(F)(F)F)c2)cn1 [nilotinib]
Outline: (§1)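 Soluble protein was defined as the supernatant remaining after 21,000xg for 90 min, following pooling of heated aliquots and adjustment to 0.5% NP-40 at 4°C. Before that, crude K562 extract at 1 mg/mL protein in PBS pH 7.4 with 1 mM MgCl2 was treated with 10 μM compound for 30 min and heated for 3 min across 48°C-58°C. Quantification used TMTpro 16plex LC-MS/MS with channel sums equalised, and values are log-two fold changes in thermal stability relative to solvent controls from duplicates.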

[1] = compound: Cc1nc(Nc2n[nH]c3c2CN(C(=O)N[C@H](CN(C)C)c2ccccc2)C3(C)C)c2sccc2n1
Outline: as §1

dasatinib = compound: Cc1nc(Nc2ncc(C(=O)Nc3c(C)cccc3Cl)s2)cc(N2CCN(CCO)CC2)n1 [dasatinib]
Outline: as §1

[2] = compound: Cc1ncc(-c2ccnc(Nc3ccc(S(C)(=O)=O)cc3)n2)n1C(C)C
Outline: as §1

[3] = compound: Cn1cc(-c2ccc3c(c2)CCN3C(=O)Cc2cccc(C(F)(F)F)c2)c2c(N)ncnc21
Outline: as §1

quisinostat = compound: Cn1cc(CNCC2CCN(c3ncc(C(=O)NO)cn3)CC2)c2ccccc21 [quisinostat]
Outline: as §1

tipifarnib = compound: Cn1cncc1[C@@](N)(c1ccc(Cl)cc1)c1ccc2c(c1)c(-c1cccc(Cl)c1)cc(=O)n2C [tipifarnib]
Outline: as §1

[4] = compound: NC(=O)Nc1cc(-c2cccc(F)c2)sc1C(=O)N[C@H]1CCCNC1
Outline: as §1

[5] = compound: NC(=O)c1cnc(N[C@@H]2CCCC[C@@H]2N)nc1Nc1cccc(-n2nccn2)c1
Outline: as §1

[6] = compound: NC1(c2ccc(-c3nc4ccn5c(=O)[nH]nc5c4cc3-c3ccccc3)cc2)CCC1
Outline: as §1

[7] = compound: NCC(=O)Nc1ccc(-n2nc(C(F)(F)F)cc2-c2ccc3c(ccc4ccccc43)c2)cc1
Outline: as §1

vorinostat = compound: O=C(CCCCCCC(=O)Nc1ccccc1)NO [vorinostat]
Outline: as §1

silmitasertib = compound: O=C(O)c1ccc2c(c1)nc(Nc1cccc(Cl)c1)c1ccncc12 [silmitasertib]
Outline: as §1

[8] = compound: O=C1NC(=O)C(c2cnc3ccccn23)=C1c1cn2c3c(cc(F)cc13)CN(C(=O)N1CCCCC1)CC2
Outline: as §1

entospletinib = compound: c1cn2cc(-c3ccc4cn[nH]c4c3)nc(Nc3ccc(N4CCOCC4)cc3)c2n1 [entospletinib]
Outline: as §1

Target	log2 fold change (nilotinib)	log2 fold change [1]	log2 fold change (dasatinib)	log2 fold change [2]	log2 fold change [3]	log2 fold change (quisinostat)	log2 fold change (tipifarnib)	log2 fold change [4]	log2 fold change [5]	log2 fold change [6]	log2 fold change [7]	log2 fold change (vorinostat)	log2 fold change (silmitasertib)	log2 fold change [8]	log2 fold change (entospletinib)
SUCLG1 (UniProt P53597)	inactive: -0.028	inactive: -0.03	inactive: -0.04	inactive: 0.072	inactive: 0.042	inactive: -0.068	inactive: 0.01	inactive: 0.041	inactive: 0.002	inactive: 0.014	inactive: 0.036	inactive: -0.123	inactive: 0.029	inactive: 0.032	inactive: 0.013
TACC1 (UniProt O75410)	inactive: 0.044	inactive: 0.018	inactive: 0.013	inactive: -0.038	inactive: 0.015	inactive: 0.023	inactive: -0.085	inactive: -0.002	inactive: -0.008	inactive: -0.018	inactive: -0.03	inactive: 0.014	inactive: 0.024	inactive: 0.005	inactive: -0.02
SVIP (UniProt Q8NHG7)	inactive: -0.006	inactive: 0	inactive: -0.066	inactive: 0.089	inactive: -0.013	inactive: 0.034	inactive: 0.004	inactive: -0.095	inactive: -0.012	inactive: -0.004	inactive: 0.023	inactive: 0.171	inactive: -0.041	inactive: -0.013	inactive: -0.012
STRAP isoform 2 (UniProt Q9Y3F4)	inactive: 0.009	inactive: 0.013	inactive: -0.001	inactive: 0.015	inactive: -0.017	inactive: 0.031	inactive: 0.038	inactive: -0.019	inactive: -0.019	inactive: 0.017	inactive: 0.004	inactive: 0.047	inactive: -0.042	inactive: -0.019	inactive: 0.021
STXBP3 (UniProt O00186)	inactive: -0.006	inactive: -0.043	inactive: -0.037	inactive: 0.055	inactive: 0.009	inactive: 0.099	inactive: 0.006	inactive: 0.004	inactive: 0.009	inactive: 0.008	inactive: 0.009	inactive: -0.179	inactive: -0.014	inactive: 0.016	inactive: 0.003
STRBP (UniProt Q96SI9)	inactive: -0.03	inactive: 0.01	inactive: -0.011	inactive: -0.011	inactive: 0.056	inactive: -0.03	inactive: 0.032	inactive: 0.032	inactive: 0.003	inactive: 0.046	inactive: -0.011	inactive: -0.016	inactive: 0.002	inactive: -0.018	inactive: -0.018
SYNRG (UniProt Q9UMZ2)	inactive: -0.007	inactive: 0.012	inactive: 0.009	inactive: 0.036	inactive: 0.001	inactive: 0.021	inactive: -0.025	inactive: 0.018	inactive: 0.026	inactive: -0.079	inactive: 0.02	inactive: -0.002	inactive: -0.01	inactive: -0.002	inactive: -0.014
TACC3 (UniProt Q9Y6A5)	inactive: -0.001	inactive: 0.018	inactive: 0.021	inactive: 0.02	inactive: -0.012	inactive: 0.02	inactive: -0.002	inactive: -0.021	inactive: -0.011	inactive: 0.009	inactive: -0.025	inactive: 0.065	inactive: -0.025	inactive: 0.021	inactive: 0
STX7 (UniProt O15400)	inactive: 0.002	inactive: -0.02	inactive: -0.009	inactive: -0.012	inactive: 0.007	inactive: -0.001	inactive: 0.043	inactive: -0.009	inactive: -0.022	inactive: 0.014	inactive: 0.02	inactive: 0.135	inactive: -0.021	inactive: -0.001	inactive: 0.005
STK38 (UniProt Q15208)	inactive: -0.009	active: 0.858	inactive: -0.003	inactive: 0.078	inactive: 0.064	inactive: -0.14	inactive: -0.029	active: 0.563	inactive: 0.054	inactive: 0.036	inactive: 0.021	active: -0.424	inactive: 0.16	inactive: -0.029	inactive: 0
STX12 (UniProt Q86Y82)	inactive: 0.002	inactive: -0.024	inactive: 0.03	inactive: 0.001	inactive: -0.004	inactive: -0.008	inactive: -0.003	inactive: -0.009	inactive: 0.012	inactive: -0.007	inactive: 0.001	inactive: 0.11	inactive: -0.036	inactive: 0.017	inactive: 0.038
SULT1A1 (UniProt P50225)	inactive: 0.029	inactive: -0.074	inactive: 0.009	inactive: -0.028	inactive: -0.007	inactive: -0.006	inactive: -0.043	inactive: 0.047	inactive: 0.007	inactive: -0.021	inactive: 0.077	active: -0.273	inactive: 0.036	inactive: -0.021	inactive: 0.071
STX10 (UniProt O60499)	inactive: 0.166	inactive: 0.147	inactive: -0.003	inactive: 0.018	inactive: -0.057	inactive: -0.025	inactive: 0.017	inactive: -0.045	inactive: 0.017	inactive: -0.012	inactive: 0.049	inactive: 0.088	inactive: -0.035	inactive: -0.004	inactive: 0.015
SWI5 (UniProt Q1ZZU3)	inactive: 0.028	inactive: 0.028	inactive: -0.001	inactive: 0.237	inactive: -0.077	inactive: 0.019	inactive: -0.06	inactive: -0.052	inactive: -0.019	inactive: -0.036	inactive: 0.087	inactive: 0.098	inactive: -0.057	inactive: -0.046	inactive: -0.039
STXBP2 (UniProt Q15833)	inactive: -0.034	inactive: 0.008	inactive: -0.027	inactive: -0.011	inactive: 0.023	inactive: -0.057	inactive: -0.018	inactive: 0.026	inactive: 0.007	inactive: 0.01	inactive: -0.013	inactive: -0.14	inactive: 0.035	inactive: 0.022	inactive: 0.021
SUMO2 (UniProt P61956)	inactive: -0.017	inactive: 0.011	inactive: 0.075	inactive: -0.009	inactive: -0.058	inactive: -0.04	inactive: 0.007	inactive: 0.006	inactive: -0.007	inactive: 0.03	inactive: 0.045	inactive: 0.222	inactive: -0.09	inactive: -0.007	inactive: -0.006
SUMO3 isoform 2 (UniProt P55854)	inactive: 0.013	inactive: -0.002	inactive: 0.027	inactive: 0.021	inactive: -0.046	inactive: 0.049	inactive: 0.073	inactive: -0.041	inactive: -0.044	inactive: 0.024	inactive: 0	inactive: 0.162	inactive: -0.087	inactive: 0.024	inactive: -0.001
SUPT5H (UniProt O00267)	inactive: -0.012	inactive: -0.004	inactive: 0.009	inactive: -0.02	inactive: 0.018	inactive: 0.007	inactive: 0.035	inactive: 0	inactive: -0.003	inactive: -0.001	inactive: 0.031	inactive: -0.158	inactive: 0.008	inactive: -0.026	inactive: -0.004
STUB1 (UniProt Q9UNE7)	inactive: 0.031	inactive: -0.027	inactive: -0.037	inactive: 0.027	inactive: 0.004	inactive: -0.06	inactive: -0.011	inactive: 0.053	inactive: 0.015	inactive: 0.004	inactive: -0.012	active: -0.33	inactive: 0.015	inactive: 0.006	inactive: 0.019
STX6 (UniProt O43752)	inactive: 0.017	inactive: 0.043	inactive: 0.019	inactive: -0.043	inactive: 0.041	inactive: -0.078	inactive: -0.016	inactive: -0.002	inactive: -0.02	inactive: -0.001	inactive: 0.03	inactive: 0.112	inactive: -0.04	inactive: 0.021	inactive: -0.052
STX8 (UniProt Q9UNK0)	inactive: 0.022	inactive: -0.028	inactive: 0.031	inactive: -0.056	inactive: 0.106	inactive: -0.111	inactive: -0.019	inactive: -0.006	inactive: 0.012	inactive: 0.06	inactive: 0.009	inactive: 0.074	inactive: 0.038	inactive: -0.065	inactive: -0.047

Quoted from the listing:
In log2 fold change (entospletinib), SYNRG (UniProt Q9UMZ2) reads inactive: -0.014
In log2 fold change (quisinostat), STXBP2 (UniProt Q15833) reads inactive: -0.057
